No constants are given. Whether binding was seen depends on the method and setting. Binding seen in cells or lysates may run through a third protein. A result given as binding can be weak or reduced; the word gives no strength.
Target: RRAD-ΔC249-Flag (human) (UniProt P55042)
Test: co-IP; H1299 cells expressing RRAD-Flag (WT or deletion mutant) and p65-HA; lysates in NP-40 buffer (50mM Tris-HCl pH 7.5, 1% NP-40, 150mM NaCl, 5 mM EDTA); IP with anti-Flag M2 or anti-HA overnight; Western blot

The chains behind the UniProt entries cited, without tags or fusion partners. Where a name states a change or a piece, a line headed by the entry shows the natural chain unless it says otherwise.
UniProt P55042: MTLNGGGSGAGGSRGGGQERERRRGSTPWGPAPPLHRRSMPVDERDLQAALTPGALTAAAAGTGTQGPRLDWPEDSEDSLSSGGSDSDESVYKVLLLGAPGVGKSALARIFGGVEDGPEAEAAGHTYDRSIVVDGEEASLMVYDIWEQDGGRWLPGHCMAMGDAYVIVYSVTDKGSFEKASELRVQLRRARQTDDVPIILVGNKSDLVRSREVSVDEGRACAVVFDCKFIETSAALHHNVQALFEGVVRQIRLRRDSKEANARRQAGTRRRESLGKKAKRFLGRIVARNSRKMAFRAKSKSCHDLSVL
UniProt Q04206: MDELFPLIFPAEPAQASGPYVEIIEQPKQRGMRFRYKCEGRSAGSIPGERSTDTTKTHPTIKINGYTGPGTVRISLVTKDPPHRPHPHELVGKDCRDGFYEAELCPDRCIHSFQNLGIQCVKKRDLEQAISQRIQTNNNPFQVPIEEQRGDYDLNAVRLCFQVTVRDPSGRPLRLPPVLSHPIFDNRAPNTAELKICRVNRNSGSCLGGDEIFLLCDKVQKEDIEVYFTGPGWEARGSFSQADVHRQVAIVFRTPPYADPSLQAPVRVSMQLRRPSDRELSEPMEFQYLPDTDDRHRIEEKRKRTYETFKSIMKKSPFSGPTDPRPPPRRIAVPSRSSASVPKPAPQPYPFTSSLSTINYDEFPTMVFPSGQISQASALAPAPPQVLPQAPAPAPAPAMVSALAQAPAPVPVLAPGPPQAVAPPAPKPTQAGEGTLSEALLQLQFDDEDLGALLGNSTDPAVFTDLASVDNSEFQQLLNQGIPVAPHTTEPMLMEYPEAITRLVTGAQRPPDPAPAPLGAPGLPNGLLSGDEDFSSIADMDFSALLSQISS

## p65-HA (from UniProt Q04206 1-551)
  binding: binds

Reference: article PMC4558130
